Results deposited as PubChem BioAssay AID1259307 (Sanger Institute, 2017).

- Screen: 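siRNA kinome screen seeking kinases whose loss harms SW620 cells alone or with drugs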 (primary screen)
- Cells: SW620 colorectal cancer cells
- Knock-down reagent: siRNA pool against human genes
- Challenge: anchor drugs BYL719 at 1 µM, cetuximab at 5 µg/ml or trametinib at 10 nM, each beside a DMSO vehicle arm
- Detection: 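Cell viability in each well relative to non-targeting controls, averaged over replicates and turned into a robust z-score; synergy with BYL719 (1 µM), cetuximab (5 µg/ml), trametinib (10 nM) versus DMSO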
- Scale: viability robust z-score, no drug and viability vs control, no drug: higher = more viable cells; synergy score with BYL719 and synergy score with cetuximab and synergy score with trametinib: higher = stronger synthetic lethality with the drug
- Hit rule: 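Essential when the viability robust z-score without drug is under -3; synergy scores are ignored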
- Calls: active = essential (lethal alone); inactive = no change alone
In all, the deposit lists 794 reagents; below is an unselected part. 15 of them (1.9%) count as active. 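Calls reflect lethality without any drug; synergy scores did not enter the calls.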 Unmarked entries are inactive. The numbers tell different reagents against one gene apart. Viability is capped at 1. The record does not give: the amount of reagent, the time to read-out.

| Gene | reagent no. | viability robust z-score, no drug | viability vs control, no drug | synergy score with BYL719 | synergy score with cetuximab | synergy score with trametinib |
| --- | --- | --- | --- | --- | --- | --- |
| SPEG | 1 | 0.736 | 1 | -0.0269 | 0.0612 | -0.00541 |
| CPNE3 | 1 | 0.736 | 1 | -0.0493 | 0 | 0.0728 |
| GUCY2EP | 1 | -2.43 | 0.708 | -0.0876 | -0.2 | -0.186 |
| HASPIN | 1 | -0.234 | 0.91 | -0.0685 | 0.0543 | 0.0169 |
| GRK2 | 1 | 0.127 | 0.944 | -0.0882 | -0.0562 | 0.0343 |
| NIM1K | 1 | 0.136 | 0.945 | -0.0388 | -0.0276 | -0.0204 |
| MED12 | 1 | 0.714 | 0.998 | 0.00597 | -0.00206 | 0.0366 |
| CSNK1G1 | 1 | 0.594 | 0.987 | 0.011 | 0.0574 | 0.03 |
| PIK3CD | 1 | 0.699 | 0.997 | 0.0351 | 0.0629 | -0.0531 |
| CDK11B | 1 | -2.12 | 0.737 | -0.0313 | -0.0549 | -0.019 |
| NUP62 | 1 | -1.83 | 0.763 | 0.0301 | -0.13 | -0.0256 |
| MED24 | 1 | 0.736 | 1 | 0.0193 | 0 | 0.0102 |
| PSKH2 | 1 | 0.736 | 1 | 0.0182 | 0.089 | 0.042 |
| CDK10 | 1 | 0.375 | 0.967 | -0.0143 | 0.0302 | 0.0479 |
| PACSIN1 | 1 | 0.736 | 1 | 0.0308 | 0 | 0.0723 |
| PRKACB | 1 | 0.423 | 0.971 | 0.0642 | 0.0609 | 0.0872 |
| CDK7 | 1 | 0.736 | 1 | 0.0206 | 0 | 0.0267 |
| PRKCG | 1 | -0.149 | 0.918 | -0.0043 | 0.0427 | 0.0921 |
| GNAS | 1 | 0.517 | 0.98 | 0.103 | -0.0202 | 0.0388 |
| PRKCD | 1 | 0.736 | 1 | 0.0424 | 0.0835 | 0.1 |
| DDR2 | 1 | -0.0356 | 0.929 | -0.0607 | -0.0668 | -0.0122 |
| SPHK1 | 1 | 0.367 | 0.966 | -0.0448 | 0.0192 | 0.0218 |
| CNOT1 | 1 | -3.41 (active) | 0.617 | -0.18 | -0.214 | -0.132 |
| ROS1 | 1 | 0.596 | 0.987 | -0.0276 | 0.0333 | 0.0787 |
| SGK3 | 1 | 0.736 | 1 | 0.0164 | 0.00962 | 0.0429 |
| BRD4 | 1 | 0.736 | 1 | -0.0351 | 0 | 0.0106 |

Records listed so far marked active, once more:
| Gene | reagent no. | viability robust z-score, no drug | viability vs control, no drug | synergy score with BYL719 | synergy score with cetuximab | synergy score with trametinib |
| --- | --- | --- | --- | --- | --- | --- |
| CNOT1 | 1 | -3.41 (active) | 0.617 | -0.18 | -0.214 | -0.132 |

The results go on:
| Gene | reagent no. | viability robust z-score, no drug | viability vs control, no drug | synergy score with BYL719 | synergy score with cetuximab | synergy score with trametinib |
| --- | --- | --- | --- | --- | --- | --- |
| FRK | 1 | -0.219 | 0.912 | -0.172 | -0.0872 | -0.0651 |
| ILK | 1 | -0.0886 | 0.924 | -0.109 | -0.0761 | -0.139 |
| ILK | 2 | 0.736 | 1 | -0.033 | 0 | 0.0422 |
| DBF4 | 1 | 0.736 | 1 | -0.0663 | 0.0333 | -0.0578 |
| MAP2K1 | 1 | -0.0238 | 0.93 | -0.0578 | 0.00701 | -0.0519 |
| TCF12 | 1 | 0.736 | 1 | -0.0639 | 0 | -0.0528 |
| VRK3 | 1 | -1.93 | 0.754 | 0.0104 | -0.195 | -0.0864 |
| AGK | 1 | 0.736 | 1 | -0.0919 | 0 | -0.156 |
| PIP4K2B | 1 | 0.736 | 1 | -0.0587 | 0 | -0.0545 |
| GK | 1 | -0.809 | 0.857 | -0.0364 | -0.143 | -0.0337 |
| MAST3 | 1 | 0.736 | 1 | 0.0326 | 0 | 0.00498 |
| CDK1 | 1 | 0.736 | 1 | -0.0906 | 0 | -0.164 |
| NRBP1 | 1 | 0.736 | 1 | -0.0331 | 0 | -0.0229 |
| PMVK | 1 | -0.516 | 0.884 | -0.0527 | -0.0519 | 0.0345 |
| TNK2 | 1 | 0.736 | 1 | -0.0565 | 0 | 0.00601 |
| CKMT2 | 1 | 0.736 | 1 | 0.0713 | 0.125 | 0.0913 |
| ACVR1C | 1 | 0.736 | 1 | 0.0399 | 0 | 0.0778 |
| PRKACA | 1 | 0.736 | 1 | -0.0919 | 0 | -0.0754 |
